# Results reported in paper PMC11885570.
# By UniProt entry, the sequences of proteins in these tests, tags left out.
# UniProt O14929: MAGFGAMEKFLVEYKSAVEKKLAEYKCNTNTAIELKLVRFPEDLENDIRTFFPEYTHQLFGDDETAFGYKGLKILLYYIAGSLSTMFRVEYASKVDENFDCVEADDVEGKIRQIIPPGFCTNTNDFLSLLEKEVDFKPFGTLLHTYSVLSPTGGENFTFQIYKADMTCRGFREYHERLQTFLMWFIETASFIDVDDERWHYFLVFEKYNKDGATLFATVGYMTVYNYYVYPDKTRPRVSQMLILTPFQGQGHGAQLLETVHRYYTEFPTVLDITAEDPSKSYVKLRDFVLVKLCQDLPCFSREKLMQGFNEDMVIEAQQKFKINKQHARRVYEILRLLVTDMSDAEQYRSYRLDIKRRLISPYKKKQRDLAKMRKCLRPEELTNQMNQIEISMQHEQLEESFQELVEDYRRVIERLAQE
# Read-outs that look alike come from different tables or passages of the source. These are yes or no findings as the source states them, for the method shown. In cells and extracts the contact can be indirect. Some binding calls cover weakened binding; strength is not graded here. For some assays here: Where a sequence is shown, tags or fusion partners need not be part of it.
# T1: Flag-ACSL4-K383Q (pcDNA-Flag-ASCL4-K383Q), K383 acetylation mutant (UniProt O60488)
# T1 sequence: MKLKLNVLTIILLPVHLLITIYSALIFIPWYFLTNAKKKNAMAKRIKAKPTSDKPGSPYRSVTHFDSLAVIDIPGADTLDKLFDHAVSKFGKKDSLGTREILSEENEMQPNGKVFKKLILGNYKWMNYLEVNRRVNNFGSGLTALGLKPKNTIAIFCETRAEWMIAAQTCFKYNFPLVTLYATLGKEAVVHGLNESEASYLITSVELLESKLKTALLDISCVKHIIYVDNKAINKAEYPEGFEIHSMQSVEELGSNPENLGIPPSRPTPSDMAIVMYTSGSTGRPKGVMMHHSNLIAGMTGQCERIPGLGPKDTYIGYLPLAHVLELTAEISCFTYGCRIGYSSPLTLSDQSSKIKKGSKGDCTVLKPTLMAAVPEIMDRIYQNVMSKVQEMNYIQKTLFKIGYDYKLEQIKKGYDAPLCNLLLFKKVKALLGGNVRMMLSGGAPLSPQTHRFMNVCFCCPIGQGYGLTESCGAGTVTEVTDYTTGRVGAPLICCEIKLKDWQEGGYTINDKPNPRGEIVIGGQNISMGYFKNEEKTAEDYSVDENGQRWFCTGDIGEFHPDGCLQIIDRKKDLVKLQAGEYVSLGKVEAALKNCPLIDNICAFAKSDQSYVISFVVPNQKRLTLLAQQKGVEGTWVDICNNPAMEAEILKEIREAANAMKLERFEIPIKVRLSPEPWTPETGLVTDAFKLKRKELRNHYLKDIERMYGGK
# Assays:
# [1] = target: Flag-ACSL4 (pcDNA-Flag-ASCL4) (UniProt O60488); assay: co-IP; 293T cells co-transfected with Flag- and His-tagged plasmids; lysate with antibody and magnetic beads overnight at 4 °C, three washes, western blot
# [2] = target: acyl-CoA synthase long-chain family member 4 (ACSL4), endogenous in NPC cells (human (endogenous in NPC cells)) (UniProt O60488); assay: co-IP; endogenous proteins in NPC cell lysate (IP buffer); antibody and magnetic beads overnight at 4 °C, three washes, western blot
# [3] = target: Flag-ACSL4 (pcDNA-Flag-ASCL4) (UniProt O60488); assay: co-IP; 293T cells co-transfected with Flag- and His-tagged plasmids; lysate with antibody and magnetic beads overnight at 4 °C, three washes, western blot; remark: listed apart in the source
# [4] = target: T1, Flag-ACSL4-K383Q (pcDNA-Flag-ASCL4-K383Q), K383 acetylation mutant; assay: as above
# [5] = target: acyl-CoA synthase long-chain family member 4 (ACSL4), endogenous in NPC cells (human (endogenous in NPC cells)) (UniProt O60488); assay: co-IP; endogenous proteins in NPC cell lysate (IP buffer); antibody and magnetic beads overnight at 4 °C, three washes, western blot; remark: listed apart in the source
molecule,measurement,setting,value
His-HAT1 (pcDNA-His-HAT1) (from UniProt O14929 1-419) (enzyme),binding,[1],binds
"histone acetyltransferase 1 (HAT1), endogenous in NPC cells (from UniProt O14929 1-419) (enzyme)",binding,[2],binds
"His-FBXO10 (pcDNA-His-FBXO10) (protein, UniProt Q9UK96 1-956) MEAGGLPLELWRMILAYLHLPDLGRCSLVCRAWYELILSLDSTRWRQLCLGCTECRHPNWPNQPDVEPESWREAFKQHYLASKTWTKNALDLESSICFSLFRRRRERRTLSVGPGREFDSLGSALAMASLYDRIVLFPGVYEEQGEIILKVPVEIVGQGKLGEVALLASIDQHCSTTRLCNLVFTPAWFSPIMYKTTSGHVQFDNCNFENGHIQVHGPGTCQVKFCTFKNTHIFLHNVPLCVLENCEFVGSENNSVTVEGHPSADKNWAYKYLLGLIKSSPTFLPTEDSDFLMSLDLESRDQAWSPKTCDIVIEGSQSPTSPASSSPKPGSKAGSQEAEVGSDGERVAQTPDSSDGGLSPSGEDEDEDQLMYRLSYQVQGPRPVLGGSFLGPPLPGASIQLPSCLVLNSLQQELQKDKEAMALANSVQGCLIRKCLFRDGKGGVFVCSHGRAKMEGNIFRNLTYAVRCIHNSKIIMLRNDIYRCRASGIFLRLEGGGLIAGNNIYHNAEAGVDIRKKSNPLILCNQIHHGLRSGIVVLGNGKGIIRNNQIFSNKEAGIYILYHGNPVVSGNHIFKGRAAGIAVNENGKGLITENVIRENQWGGVDIRRGGIPVLRSNLICFGYSDGVVVGDEGKGLIEGNTIYANKGCGVWMMSSSLPHVTSNHVSYNGLYGVAVFSQKDGSSELPRGHRAQENFSEDGDAILWETELEKEDDPLRRPITIALVESNSINHNGASGLYVQSSEALHVITNVIHANGDRGITVAQSSQPTRVANNSISCNRQSGVKVEAQCKVELRGNGIYDNRGHGIITKGDSTIVIENDIIGNRGSGLQLLPRSDTKVIKNRIHSFRAYGIAVRGRAKALVQENIIFQGKTSKTIFQQISNNRECIMQNNKFLVFKKKSDTWRLVNPPARPHLENSLRRPSAAHNGQKVTAMATRITARVEGGYHSNRSVFCTIL",binding,[3],binds
same,binding,[4],binds
"F-box protein 10 (FBXO10), endogenous in NPC cells (protein, UniProt Q9UK96 1-956) MEAGGLPLELWRMILAYLHLPDLGRCSLVCRAWYELILSLDSTRWRQLCLGCTECRHPNWPNQPDVEPESWREAFKQHYLASKTWTKNALDLESSICFSLFRRRRERRTLSVGPGREFDSLGSALAMASLYDRIVLFPGVYEEQGEIILKVPVEIVGQGKLGEVALLASIDQHCSTTRLCNLVFTPAWFSPIMYKTTSGHVQFDNCNFENGHIQVHGPGTCQVKFCTFKNTHIFLHNVPLCVLENCEFVGSENNSVTVEGHPSADKNWAYKYLLGLIKSSPTFLPTEDSDFLMSLDLESRDQAWSPKTCDIVIEGSQSPTSPASSSPKPGSKAGSQEAEVGSDGERVAQTPDSSDGGLSPSGEDEDEDQLMYRLSYQVQGPRPVLGGSFLGPPLPGASIQLPSCLVLNSLQQELQKDKEAMALANSVQGCLIRKCLFRDGKGGVFVCSHGRAKMEGNIFRNLTYAVRCIHNSKIIMLRNDIYRCRASGIFLRLEGGGLIAGNNIYHNAEAGVDIRKKSNPLILCNQIHHGLRSGIVVLGNGKGIIRNNQIFSNKEAGIYILYHGNPVVSGNHIFKGRAAGIAVNENGKGLITENVIRENQWGGVDIRRGGIPVLRSNLICFGYSDGVVVGDEGKGLIEGNTIYANKGCGVWMMSSSLPHVTSNHVSYNGLYGVAVFSQKDGSSELPRGHRAQENFSEDGDAILWETELEKEDDPLRRPITIALVESNSINHNGASGLYVQSSEALHVITNVIHANGDRGITVAQSSQPTRVANNSISCNRQSGVKVEAQCKVELRGNGIYDNRGHGIITKGDSTIVIENDIIGNRGSGLQLLPRSDTKVIKNRIHSFRAYGIAVRGRAKALVQENIIFQGKTSKTIFQQISNNRECIMQNNKFLVFKKKSDTWRLVNPPARPHLENSLRRPSAAHNGQKVTAMATRITARVEGGYHSNRSVFCTIL",binding,[5],binds
